Measured values reported in article PMC8316552.
Results are given in words; binding and its absence hold for the method and conditions named. In cells and extracts the contact can be indirect. Some entries that bind do so weakly or less than the wild type.

The chains behind the UniProt entries cited, without tags or fusion partners. Residues count along the entry.
UniProt Q13501, residues 3-102: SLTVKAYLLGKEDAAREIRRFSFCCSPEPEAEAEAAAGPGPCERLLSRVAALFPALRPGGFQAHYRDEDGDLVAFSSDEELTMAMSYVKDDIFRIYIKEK

Molecular target: Gαq WT (transiently overexpressed) (UniProt P50148)
Experiment: co-IP; CHO cells transfected with HA-p62 and Gαq, with overexpression of GFP-Flag-PB1-p62; anti-HA immunoprecipitation (Fig. 6f)

In the case of “GFP-Flag-PB1-p62 (from UniProt Q13501 3-102) (domain or fragment)”, the binding is reported as “binds”.
